Measured values: article PMC12135451
These are yes or no findings as the source states them, for the method shown. In cells and extracts the contact can be indirect. Binding can be weak; no strength is given. Tags and fused reporters may be left off the sequences shown.

Biological target: C-terminal region of HOIP (Flag-HOIP construct) (human)
Assay: co-IP; asynchronous 293T cells transfected with Flag- and HA-tagged constructs; anti-Flag and/or anti-HA IP; lysis in EBC buffer (50 mM Tris pH 7.5, 120 mM NaCl, 0.5% NP-40), four washes with NETN buffer; immunoblot

binding: binds
B1: HA-p31^comet (protein, UniProt Q15013 1-274)
chain: MAAPEAEVLSSAAVPDLEWYEKSEETHASQIELLETSSTQEPLNASEAFCPRDCMVPVVFPGPVSQEGCCQFTCELLKHIMYQRQQLPLPYEQLKHFYRKPSPQAEEMLKKKPRATTEVSSRKCQQALAELESVLSHLEDFFARTLVPRVLILLGGNALSPKEFYELDLSLLAPYSVDQSLSTAACLRRLFRAIFMADAFSELQAPPLMGTVVMAQGHRNCGEDWFRPKLNYRVPSRGHKLTVTLSCGRPSIRTTAWEDYIWFQAPVTFKGFRE
